The nature of this assay: qHTS Assay for Lipid Storage Modulators in Drosophila S3 Cells.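 For cell number change: cells counted by Cell Tracker Red CMTPX staining in the red channel.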 The settings on record: BODIPY lipid droplet fluorescence, 18-24 h; for cell number change: measured here: cell count max response, cells fed with added oleic acid. The essentials: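 Drosophila S3 cells loaded with oleic acid (400 uM, as added) and compounds at several concentrations; lipid droplets imaged by 488-nm laser-scanning cytometry, 500–530 nm intensity and object ratio to cell channel. Percent activity normalized to 20 uM Triacsin C.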
On the technique in general: In qHTS, concentration-response curves come from the screen itself.

The mark [1] stands for this setting: measured here: lipid fluorescence (Fed channel) AC50, cells fed with added oleic acid.
[2] abbreviates: measured here: cell number channel AC50, cells fed with added oleic acid.

Where “and” joins values, the source holds several entries; their conditions need not be identical. Equal entries are not always repeated. This is one part of the list. These are further read-outs of the screen, such as a control signal, another cell line or another target. No call is given for them. Compounds called inactive in the main read-out are mostly missing here. The note in brackets gives the kind of curve behind each potency; many fits are weak.

We go through 54 compounds from PubChem BioAssay AID2685 (National Center for Advancing Translational Sciences (NCATS), 2010).

For orientation: AC50 means the midpoint of the concentration-response curve, whichever way the signal moves. Read a low AC50 as activity at low concentration.

As to `Cc1ccc(C(C)C)c(OCC(=O)NS(=O)(=O)c2ccc(Cl)cc2)c1`, the cell number change was -17.3%. Also, the AC50 under setting [1] is 29.1 µM [falling, single point].

As for `COc1ccc(CN(CC(=O)NCC2CCCO2)C(=O)CCC(=O)Nc2cc(C)ccn2)cc1` (configuration not stated), the cell number change worked out at 0.287%.

Take `COc1ccccc1-n1c(-c2ccccc2)c[n+]2c1CCc1ccccc1-2`: the cell number change is -124% and -58.2%. Further, the AC50 under setting [2] is 5.8 µM [falling, full curve] and 20.6 µM [falling, partial curve, poor fit]. In addition, the half-maximal activity concentration (AC50) under setting [1] was 29.1 µM [falling, partial curve] and 20.6 µM [falling, partial curve, poor fit].

In the case of `Cc1c(Cl)cccc1NC(=S)N1CCN(c2ccc([N+](=O)[O-])cn2)CC1`, the concentration at half-maximal activity (AC50) reads like this: under setting [2], 2.06 µM [rising, partial curve]; under setting [1], 2.59 µM [rising, partial curve].

In the case of `COC(=O)c1ccccc1OC(=O)c1cccnc1`, the cell number change came out at 32.2%. For the same compound, the AC50 under setting [1] was 29.1 µM [falling, single point].

Take `CC(C)(C)c1ccc(OCc2ccc(C(=O)NCc3cccnc3)o2)cc1`: the cell number change is -58.4%. For the same compound, under setting [2], the half-maximal activity concentration (AC50) was 29.1 µM [falling, single point]. Besides, the half-maximal activity concentration (AC50) under setting [1] is 29.1 µM [falling, single point].

As to `COc1cc(OC)cc(OCC(O)Cn2ccnc2)c1` (configuration not stated), the cell number change was -7.39%.

For the compound `NC(=O)c1ccccc1NS(=O)(=O)c1ccc2c(c1)OCCO2`, the cell number change is 7.53%.

Consider `CCn1nc(C)cc1C(=O)N1CCCC(C(=O)c2ccc3ccccc3c2)C1` (configuration not stated), for which the cell number change is -51.9%. Moreover, under setting [2], the concentration at half-maximal activity (AC50) is 11.6 µM [falling, partial curve]. In addition, the AC50 under setting [1] is 4.61 µM [falling, full curve].

Take `COc1ccccc1CNC(=O)CN1C(=O)NC(C)(c2ccc(C(C)(C)C)cc2)C1=O` (configuration not stated): the cell number change is -16.2%.

Take `O=C(C1CC1)N1CCCC(c2ccc(Cl)cc2)=N1`: the cell number change was -19.8%.

On to `COCc1cc(C)nc(Nc2cc(C)ccc2C)c1C#N`, for which the cell number change is -5.88%.

Take `C=CCOc1ccc(CN(C)CC(O)COc2cccc3ccccc23)cc1` (configuration not stated): the cell number change was -1.21%. The AC50 under setting [1] is 29.1 µM [rising, single point].

As for `CCC(CC)c1nnc(NC(=O)c2nn(C)c(=O)c3ccccc23)s1`, the cell number change was -34.7%. Under setting [2], the AC50 is 0.731 µM [falling, full curve, poor fit]. The half-maximal activity concentration (AC50) under setting [1] is 29.1 µM [falling, single point].

For the compound `Cc1nn(-c2ccccc2)c2c1P(=O)(O)/C(=C1\N(C)c3ccccc3C1(C)C)C=N2`, the cell number change stood at 58%. For the same compound, under setting [2], the half-maximal activity concentration (AC50) was 10.3 µM [rising, single point]. In addition, under setting [1], the concentration at half-maximal activity (AC50) was 29.1 µM [rising, single point].

On to `COc1ccc(-c2cccc(C3CC=CC4C3C(=O)N(Cc3ccccc3)C4c3ccc(C(F)(F)F)cc3)c2)cc1` (configuration not stated), for which the cell number change was 2.46%. Besides, under setting [1], the AC50 was 2.06 µM [rising, full curve, poor fit].

Turning to `CCCC1(c2ccccc2)NC(=O)N(CC(=O)Nc2cc(C)ccc2OC)C1=O` (configuration not stated), the cell number change amounted to 0.901%.

Consider `Cc1cc(C(=O)OCC(=O)Nc2ccccc2C)c(C)o1`, for which the cell number change turned out to be 4.91%. In addition, under setting [2], the half-maximal activity concentration (AC50) was 3.66 µM [rising, single point]. In addition, the concentration at half-maximal activity (AC50) under setting [1] is 3.66 µM [rising, partial curve, poor fit].

Regarding `O=C(NC1CCN(S(=O)(=O)c2ccc(F)cc2)CC1)c1ccco1`, the cell number change is 11.5%.

Turning to `O=C(Nc1ccc(Oc2ncnc3cc(Cl)ccc23)nc1)c1cccs1`, the AC50 by setting is: under setting [2], 2.31 µM [rising, partial curve, poor fit]; under setting [1], 4.61 µM [rising, partial curve].

Consider `c1ccc(Nc2nc3ccccc3[nH]2)nc1`, for which the cell number change is -35.4%. Also, the AC50 under setting [2] is 32.6 µM [falling, single point].

As for `CCOc1ccc(S(=O)(=O)Nc2nc3ccccc3nc2-n2ccc(=NC(=O)c3cccs3)cc2)cc1`, the cell number change was 14.8%. Also, the half-maximal activity concentration (AC50) under setting [1] is 6.51 µM [falling, single point].

In the case of `CCOC(=O)C1=C(CNCc2ccccc2Cl)NC(=O)NC1c1ccc2c(c1)OCO2` (configuration not stated), the cell number change is -27.9%. The AC50 under setting [1] is 6.51 µM [rising, partial curve].

For the compound `C#CCOCCOCCOCCNc1nc(N2CCN(C(=O)CCCCCCCCCCNC(=O)[C@H]([C@@H](C)CC)n3cc(CCCCN=C(N)N)nn3)CC2)nc(N2CCN(C(=O)CCCCCCCCCCNC(=O)[C@H](CCCCN)n3cc(C)nn3)CC2)n1`, the cell number change is -76.5%. For the same compound, the AC50 under setting [2] was 18.4 µM [falling, partial curve]. Moreover, under setting [1], the AC50 was 0.0164 µM [falling, partial curve, poor fit].

With `N#Cc1nc(Nc2cccc(Cl)c2)c2ncn(C3CCCC3)c2n1`, the cell number change was -30.2%. In addition, the AC50 under setting [2] is 9.2 µM [falling, single point]. The concentration at half-maximal activity (AC50) under setting [1] is 0.58 µM [rising, partial curve].

For the compound `CC(=O)c1cc2c(cc1NC(=O)c1ccc(C)cc1)OCO2`, the cell number change is 17.4%. Moreover, under setting [1], the concentration at half-maximal activity (AC50) is 0.013 µM [rising, full curve, poor fit].

As to `CC(C)N(Cc1nc(-c2ccc(Cl)cc2)no1)C(=O)C(c1ccccc1)c1ccccc1`, the cell number change was 41%. In addition, the concentration at half-maximal activity (AC50) under setting [2] was 5.8 µM [rising, full curve]. Under setting [1], the AC50 was 23.1 µM [rising, partial curve].

Consider `N#Cc1c(-c2ccccc2)nc(N2CCOCC2)[nH]c1=O`, for which the cell number change is -4.78%. In addition, the concentration at half-maximal activity (AC50) under setting [1] was 0.731 µM [rising, single point].

As for `CC(NC(=O)c1c(O)c2ccccc2[nH]c1=O)c1ccccc1` (configuration not stated), the cell number change was -4.99%. In addition, under setting [1], the AC50 is 16.4 µM [rising, single point].

On to `CCOC(=O)/C(C#N)=N/Nc1ccc(S(=O)(=O)N2CCc3ccccc32)cc1`, for which the cell number change worked out at 10%. Also, the AC50 under setting [1] was 29.1 µM [falling, partial curve].

Consider `CC(Sc1nnc(-c2cccnc2)n1-c1ccccc1)C(=O)NCc1ccc2c(c1)OCO2` (configuration not stated), for which the cell number change is 3.45%. Moreover, under setting [1], the AC50 is 2.31 µM [rising, partial curve, poor fit].

For the compound `CC(=O)Nc1ccc(C(=O)OCC(=O)N(C)C2CCCCC2)cc1`, the cell number change was -9.29%. Moreover, under setting [2], the AC50 is 0.184 µM [falling, full curve, poor fit]. Under setting [1], the concentration at half-maximal activity (AC50) is 4.61 µM [falling, partial curve].

With `CC(NCC(=O)Nc1cc(S(=O)(=O)N2CCCCCC2)ccc1Cl)c1ccccc1` (configuration not stated), the cell number change was 133%. Also, under setting [2], the AC50 is 10.3 µM [rising, partial curve]. For the same compound, the AC50 under setting [1] was 23.1 µM [rising, partial curve].

In the case of `O=C(Nc1cccc(-c2csc(Nc3ccc(Cl)cc3)n2)c1)c1cc([N+](=O)[O-])cc(C(F)(F)F)c1`, the cell number change was -40.3%. Moreover, the AC50 under setting [2] was 20.6 µM [falling, single point]. Further, the AC50 under setting [1] was 23.1 µM [falling, single point].

As to `CC(C)(C)C(=O)Nc1ccc(-c2cn3cccnc3n2)cc1`, the cell number change was -5.56%.

Take `CC1CCN(c2c(NCC3CCC(C(=O)NCCc4ccccc4)CC3)c(=O)c2=O)CC1` (configuration not stated): the cell number change was 26.9%. Moreover, the AC50 under setting [1] was 9.2 µM [rising, partial curve].

In the case of `CN(C)c1cccc2c1C(=O)c1ccccc1C2=O`, the cell number change stood at 9.64%. Also, under setting [2], the AC50 is 5.8 µM [rising, single point]. For the same compound, the concentration at half-maximal activity (AC50) under setting [1] was 10.3 µM [falling, partial curve, poor fit].

Regarding `COc1ccc(Nc2nc3nonc3nc2N2CCCCC2)cc1`, the cell number change was -0.64%. Moreover, the concentration at half-maximal activity (AC50) under setting [1] is 6.51 µM [rising, partial curve, poor fit].

Turning to `O=C(CSc1ccccc1F)OCC(=O)N1CCN(C(=O)c2ccco2)CC1`, the cell number change was -30.5%. Also, the half-maximal activity concentration (AC50) under setting [2] was 29.1 µM [falling, single point].

In the case of `Cc1ccc2c(C)c(C(=O)N3CCN(c4cnccn4)CC3)oc2c1C`, the cell number change was 32.6%. The AC50 under setting [2] was 2.51 µM [rising, full curve, poor fit]. Moreover, the AC50 under setting [1] was 0.398 µM [rising, full curve, poor fit].

Take `CN(C)c1nc(SCc2ccc(Cl)cc2)nc2c1CCCC2`: the concentration at half-maximal activity (AC50) by setting is: under setting [2], 1.64 µM [rising, partial curve]; under setting [1], 6.51 µM [rising, single point].

For `CCOC(=O)c1sc(NC(=O)CSc2nnc(-c3ccco3)n2CC)c(C(=O)OCC)c1C`, the AC50 reads like this: under setting [2], 0.651 µM [rising, single point]; under setting [1], 0.13 µM [rising, full curve, poor fit].

Take `COc1ccc(N2CCN(C(=O)c3cn(CC4CCCCC4)nn3)CC2)cc1`: the cell number change was determined as 6.8%. Besides, the half-maximal activity concentration (AC50) under setting [1] was 6.51 µM [rising, single point].

In the case of `COc1cccc(C(=O)N2CCN(C(=O)C3CCCO3)CC2)c1` (configuration not stated), the cell number change is -27.4%. Also, the concentration at half-maximal activity (AC50) under setting [1] was 16.4 µM [rising, single point].

For the compound `O=C(COC(=O)CCN=C1NS(=O)(=O)c2ccccc21)NNC(=O)c1ccc(Cl)cc1`, the cell number change was -4.4%. For the same compound, the AC50 under setting [1] is 14.6 µM [rising, partial curve, poor fit].

`O=C(CCN1CCN(S(=O)(=O)c2ccc(Cl)cc2)CC1)Nc1ccc(F)cc1`: the cell number change was found to be 3.83%.

`CCOc1cc(/C=N/n2cnnc2)ccc1OS(=O)(=O)c1ccc(C)cc1`: the cell number change is -18.2%. In addition, the concentration at half-maximal activity (AC50) under setting [1] is 29.1 µM [falling, single point].

In the case of `CCN1C(=NCc2ccc(OC)cc2)N[C@@H](CCc2ccccc2)[C@H](C(=O)NCc2ccc(OC)cc2)[C@H]1C`, the cell number change was -0.689%. Also, the AC50 under setting [1] was 0.731 µM [falling, full curve].

For `COc1ccc(CC(=O)NCCc2ccc(OC)c(OC)c2)cc1`, the cell number change is -29.4%. In addition, the half-maximal activity concentration (AC50) under setting [1] was 0.58 µM [falling, full curve].

For the compound `CCc1ccc(N2CC(C(=O)OCC(=O)NNC(=O)c3ccccc3)CC2=O)cc1` (configuration not stated), the cell number change was -18.5%. Under setting [2], the AC50 was 0.116 µM [falling, full curve, poor fit]. The concentration at half-maximal activity (AC50) under setting [1] is 23.1 µM [falling, partial curve, poor fit].

For the compound `COc1ccc(C)cc1NC(=O)C(C)N(c1ccc(C)cc1)S(C)(=O)=O` (configuration not stated), the cell number change was -15.9%. In addition, the AC50 under setting [1] is 14.6 µM [falling, single point].

Take `Cc1cccc(NC(=O)CSc2nnc(C3CC3)n2CC2CCCO2)c1C` (configuration not stated): the cell number change came to 15%.

Regarding `CCCCN1C[C@H](Cc2ccccc2)[C@@H](CC(=O)Nc2ccccc2)C1=O`, the cell number change was -4.53%. In addition, the AC50 under setting [1] was 29.1 µM [falling, single point].

With `Cc1cc2[nH]c(=O)c(=O)[nH]c2cc1S(=O)(=O)N1CCN(c2ccccc2)CC1`, the cell number change stood at 1.15%. For the same compound, the half-maximal activity concentration (AC50) under setting [1] is 2.31 µM [rising, full curve, poor fit].
